Like-named read-outs stand apart in the source and are kept apart here. No constants are given. Whether binding was seen depends on the method and setting. In cells and extracts the contact can be indirect. Some binding calls cover weakened binding; strength is not graded here. One block for each molecule: values may come before it.
Legend:
[1] = target: oxytocin receptor (rat (endogenous in striatal gliosomes and brain slices)) (UniProt P70536); experiment: co-IP; Triton X-100-soluble membrane proteins (300 µg) of freshly isolated rat striatal gliosomes; immunoprecipitated with 1 µg anti-D2 receptor or anti-OTR antibody overnight at 4 °C, protein G-sepharose; 50 mM sodium borate, 0.1 mM EDTA, pH 7.5; immunoblot
[2] = target: dopamine D2 receptor (rat (endogenous in striatal gliosomes and brain slices)) (UniProt P61169); experiment: as above
[3] = target: dopamine D2 receptor (rat (endogenous in striatal gliosomes and brain slices)) (UniProt P61169); experiment: proximity ligation; in situ PLA on 10-15 µm rat hemibrain slices (ventral and dorsal striatum); anti-D2 conjugated with PLA PLUS and anti-OTR with PLA MINUS oligonucleotides; astrocytes marked by GFAP and ezrin
[4] = target: dopamine D2 receptor (rat (endogenous in striatal gliosomes and brain slices)) (UniProt P61169); experiment: co-IP; Triton X-100-soluble membrane proteins (300 µg) of freshly isolated rat striatal gliosomes; immunoprecipitated with 1 µg anti-D2 receptor or anti-OTR antibody overnight at 4 °C, protein G-sepharose; 50 mM sodium borate, 0.1 mM EDTA, pH 7.5; immunoblot; remark: listed apart in the source
[5] = target: oxytocin receptor (rat (endogenous in striatal gliosomes and brain slices)) (UniProt P70536); experiment: as above; remark: listed apart in the source

The chains behind the UniProt entries cited, without tags or fusion partners.
UniProt P70536: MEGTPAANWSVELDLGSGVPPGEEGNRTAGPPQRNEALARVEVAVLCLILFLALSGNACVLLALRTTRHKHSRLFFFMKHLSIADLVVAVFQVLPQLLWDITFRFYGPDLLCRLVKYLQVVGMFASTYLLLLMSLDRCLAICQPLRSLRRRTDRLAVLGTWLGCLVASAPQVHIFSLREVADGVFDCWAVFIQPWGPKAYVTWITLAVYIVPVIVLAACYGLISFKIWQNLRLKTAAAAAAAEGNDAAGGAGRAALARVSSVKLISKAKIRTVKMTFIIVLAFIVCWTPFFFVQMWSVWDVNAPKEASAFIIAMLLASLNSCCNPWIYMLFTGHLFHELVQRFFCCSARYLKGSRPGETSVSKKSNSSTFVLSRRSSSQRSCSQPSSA
UniProt P61169: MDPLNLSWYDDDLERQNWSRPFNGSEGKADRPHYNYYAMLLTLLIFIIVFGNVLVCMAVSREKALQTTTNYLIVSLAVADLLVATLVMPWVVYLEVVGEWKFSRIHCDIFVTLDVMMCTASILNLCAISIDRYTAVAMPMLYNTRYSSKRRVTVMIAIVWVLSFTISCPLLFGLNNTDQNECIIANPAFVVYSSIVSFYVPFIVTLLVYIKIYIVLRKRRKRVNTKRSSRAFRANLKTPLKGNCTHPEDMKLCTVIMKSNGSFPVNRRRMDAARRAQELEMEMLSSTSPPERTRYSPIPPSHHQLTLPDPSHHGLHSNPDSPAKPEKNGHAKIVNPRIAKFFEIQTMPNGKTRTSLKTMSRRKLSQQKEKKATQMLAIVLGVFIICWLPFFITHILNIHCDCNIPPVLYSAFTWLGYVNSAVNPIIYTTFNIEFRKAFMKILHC

binding [1]: binds
Molecule: dopamine D2 receptor (from UniProt P61169 1-444)

binding [2]: binds
binding [3]: binds
Molecule: oxytocin receptor (from UniProt P70536 1-388)

binding [4]: binds
binding [5]: binds
B1: flotillin-1 (protein, UniProt Q9Z1E1 1-428)
chain: MFFTCGPNEAMVVSGFCRSPPVMVAGGRVFVLPCIQQIQRISLNTLTLNVKSEKVYTRHGVPISVTGIAQVKIQGQNKEMLAAACQMFLGKTEAEIAHIALETLEGHQRAIMAHMTVEEIYKDRQKFSEQVFKVASSDLVNMGISVVSYTLKDIHDDQDYLHSLGKARTAQVQKDARIGEAEAKRDAGIREAKAKQEKVSAQCLSEIEMAKAQRDYELKKATYDIEVNTRRAQADLAYQLQVAKTKQQIEEQRVQVQVVERAQQVAVQEQEIARREKELEARVRKPAEAERYRLERLAEAEKAQLIMQAEAEAESVRMRGEAEAFAVGARARAEAEQMAKKAEAFQMYQEAAQLDMLLEKLPQVAEEISGPLTSANKITLVSSGSGTMGAAKVTGEVLDILSRLPESVERLTGVSISQVNHNKPLRTA

— paper PMC10002782
